Measurements reported in PubChem BioAssay AID652243 (Drosophila RNAi Screening Center, 2013)
In all, the deposit lists about 24,000 reagents; shown is a random part of those that have a named target and a result. Over the whole deposit, 246 (1%) were called active. 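Plates not normalised; calls are printed but the firefly/Renilla ratio behind them is not deposited; fold cut for lowering reported inconsistently.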 The raw values are shown without normalisation. Entries without a mark were called inactive. The numbers tell different reagents against one gene apart. Names joined by + are all predicted targets of the reagent. Not given: the amount of reagent.

Screen: 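Fly regulators of androgen-dependent reporter output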 (primary screen)
Cell system: Drosophila S2R+ cells
Reagent: long dsRNA against Drosophila genes
Time to read-out: 72 h (48 h, then 24 h hormone)
Challenge: synthetic androgen R1881 at 10 nM for 24 h
Measured: 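Firefly light from an androgen-responsive reporter and Renilla control light per well, raw and unnormalised, for each of two replicates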
Direction: firefly reporter light: higher = more light from androgen-responsive reporter; Renilla control light: higher = more constitutive control signal (cell number, transfection)
Active means: 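Across duplicate plates, a knock-down whose log firefly/Renilla ratio shifted a set fold down or up from the GFP/LacZ control mean was a hit; the downward cut appears as both 1.5 and 3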
Meaning of the calls: active = hit: reporter lowered or raised; inactive = no hit

gene | reagent no. | firefly reporter light, replicate 1 | firefly reporter light, replicate 2 | Renilla control light, replicate 1 | Renilla control light, replicate 2
CG5521 | 1 | 2.43e5 | 2.27e5 | 2.28e6 | 2.57e6
CG5521 | 2 | 5.59e5 | 6.71e5 | 1.10e6 | 1.07e6
CG1971 | 1 | 57045 | 38700 | 5.13e5 | 3.59e5
CG1971 | 2 | 5.98e5 | 1.29e6 | 8.92e5 | 1.53e6
Trf2 | 1 | 9.76e5 | 1.05e6 | 1.48e6 | 1.07e6
Trf2 | 2 | 1.53e6 | 1.10e6 | 4.56e5 | 4.35e5
CG14362 | 1 | 1.62e5 | 1.72e5 | 2.61e6 | 2.49e6
CG3191 | 1 | 5.44e5 | 7.12e5 | 1.70e6 | 2.01e6
CG3191 | 2 | 3.87e5 | 5.43e5 | 9.67e5 | 9.67e5
beat-Ia | 1 | 1.04e5 | 1.64e5 | 1.04e6 | 1.86e6
beat-Ia | 2 | 7.63e5 | 1.09e6 | 9.68e5 | 1.10e6
IPIP + CG34179 + slmo | 1 | 6.20e5 | 6.35e5 | 1.83e6 | 1.98e6
CG31267 | 1 | 95308 | 91762 | 1.59e6 | 2.03e6
eIF2Bgamma | 1 | 8.85e5 | 8.35e5 | 1.15e6 | 1.36e6
eIF2Bgamma | 2 | 4.79e5 | 4.23e5 | 1.38e6 | 1.51e6
mGluR | 1 | 1.34e5 | 2.36e5 | 2.87e6 | 2.29e6
asRNA:CR33945 | 1 | 6.14e5 | 6.23e5 | 1.96e6 | 1.32e6
asRNA:CR33945 | 2 | 5.51e5 | 7.84e5 | 2.10e6 | 1.96e6
CG9114 | 1 | 5.59e5 | 7.06e5 | 4.58e6 | 5.04e6
Wdr62 | 1 | 1.49e5 | 1.98e5 | 3.03e5 | 3.95e5
Wdr62 | 2 | 9.13e5 | 7.12e5 | 2.83e5 | 3.57e5
Wdr62 | 3 | 8.95e5 | 6.53e5 | 1.64e6 | 1.22e6
Wdr62 | 4 | 9.10e5 | 9.14e5 | 1.65e6 | 1.41e6
Lztr1 | 1 | 2.07e5 | 2.50e5 | 3.41e6 | 3.79e6
Lztr1 | 2 | 2.65e5 | 2.29e5 | 2.71e6 | 3.04e6
Lztr1 | 3 | 3.74e5 | 3.31e5 | 4.59e5 | 4.95e5
CG13796 + CG31904 | 1 | 1.17e6 | 8.81e5 | 2.75e6 | 2.12e6
DopEcR | 1 | 6.97e5 | 4.03e5 | 7.94e5 | 5.38e5
CG30338 | 1 | 2.76e5 | 4.08e5 | 4.34e5 | 8.34e5
Tnpo | 1 | 4.36e5 | 4.99e5 | 9.58e5 | 1.27e6
Tnpo | 2 | 2.11e5 | 1.86e5 | 5.79e5 | 3.63e5
spas | 1 | 59344 | 77420 | 3.57e5 | 4.04e5
CG6839 | 1 | 39717 | 19372 | 3.93e5 | 1.89e5
LysP | 1 | 33357 | 98671 | 5.97e5 | 6.58e5
LysP | 2 | 5.56e5 | 3.11e5 | 5.22e5 | 5.01e5

Next part; the last 5 above are carried over.
gene | reagent no. | firefly reporter light, replicate 1 | firefly reporter light, replicate 2 | Renilla control light, replicate 1 | Renilla control light, replicate 2
Tnpo | 2 | 2.11e5 | 1.86e5 | 5.79e5 | 3.63e5
spas | 1 | 59344 | 77420 | 3.57e5 | 4.04e5
CG6839 | 1 | 39717 | 19372 | 3.93e5 | 1.89e5
LysP | 1 | 33357 | 98671 | 5.97e5 | 6.58e5
LysP | 2 | 5.56e5 | 3.11e5 | 5.22e5 | 5.01e5
OSCP1 | 1 | 1.89e5 | 1.77e5 | 9.71e5 | 6.49e5
CG42810 | 1 | 2.25e5 | 2.49e5 | 9.04e5 | 1.18e6
CadN | 1 | 2.32e5 | 2.15e5 | 2.88e6 | 3.52e6
CadN | 2 | 3.45e5 | 3.08e5 | 5.92e5 | 6.84e5
CG10874 | 1 | 91732 | 56541 | 6.65e5 | 5.48e5
CG10874 | 2 | 3.03e5 | 3.08e5 | 7.36e5 | 4.31e5
tgo | 1 | 56478 | 52983 | 4.15e5 | 6.05e5
tgo | 2 | 5.55e5 | 5.24e5 | 1.05e6 | 1.37e6
COX6AL | 1 | 3.85e5 | 6.75e5 | 8.24e5 | 1.32e6
CG31464 | 1 | 56037 | 93771 | 1.54e6 | 1.69e6
beat-VII | 1 | 1.64e5 | 2.21e5 | 5.86e5 | 4.30e5
beat-VII | 2 | 1.67e5 | 1.42e5 | 2.18e6 | 2.24e6
beat-VII | 3 | 5.65e5 | 9.93e5 | 9.55e5 | 1.59e6
CG3625 | 1 | 6.55e5 | 5.70e5 | 2.79e6 | 1.85e6
Grl36b | 1 | 1.76e5 | 2.81e5 | 5.02e5 | 5.86e5
aqz | 1 | 1.17e5 | 1.33e5 | 2.05e6 | 2.44e6
aqz | 2 | 9.02e5 | 7.04e5 | 1.52e6 | 1.17e6
lqf | 1 | 1.23e6 | 7.79e5 | 1.89e6 | 1.59e6
lqf | 2 | 9.60e5 | 4.94e5 | 3.23e6 | 2.02e6
AOX3 | 1 | 73887 | 1.05e5 | 5.58e5 | 6.03e5
Samtor | 1 | 6.85e5 | 3.81e5 | 8.09e5 | 6.30e5
Samtor | 2 | 8.19e5 | 8.62e5 | 1.13e6 | 1.40e6
CG5592 | 1 | 70523 | 1.60e5 | 1.06e6 | 1.51e6
